Measurements as given in article PMC6703430, “Combining Mutations That Inhibit Two Distinct Steps of the ATP Hydrolysis Cycle Restores Wild-Type Function in the Lipopolysaccharide Transporter and Shows that ATP Binding Triggers Transport” (mBio, 2019).

Sequences of proteins named here, by UniProt entry; tags and fusion partners are left off. A change or cut given only in a name is not applied to a line headed by its entry.
UniProt P0ADC6: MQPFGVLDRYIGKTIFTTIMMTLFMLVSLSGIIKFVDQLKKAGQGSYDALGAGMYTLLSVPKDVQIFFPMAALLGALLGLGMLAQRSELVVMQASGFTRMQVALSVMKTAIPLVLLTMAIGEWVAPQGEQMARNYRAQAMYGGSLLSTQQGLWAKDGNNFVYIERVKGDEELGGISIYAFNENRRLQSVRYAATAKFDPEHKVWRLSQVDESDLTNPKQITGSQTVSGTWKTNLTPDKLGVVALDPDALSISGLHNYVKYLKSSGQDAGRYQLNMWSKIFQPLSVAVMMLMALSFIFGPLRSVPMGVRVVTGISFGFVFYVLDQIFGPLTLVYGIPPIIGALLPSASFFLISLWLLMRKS
UniProt P0ADV9: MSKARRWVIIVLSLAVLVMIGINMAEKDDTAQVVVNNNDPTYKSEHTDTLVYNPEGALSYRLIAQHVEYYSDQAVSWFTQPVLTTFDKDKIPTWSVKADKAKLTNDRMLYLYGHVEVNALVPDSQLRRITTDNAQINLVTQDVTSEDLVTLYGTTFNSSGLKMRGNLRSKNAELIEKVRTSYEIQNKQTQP
UniProt P0AF98: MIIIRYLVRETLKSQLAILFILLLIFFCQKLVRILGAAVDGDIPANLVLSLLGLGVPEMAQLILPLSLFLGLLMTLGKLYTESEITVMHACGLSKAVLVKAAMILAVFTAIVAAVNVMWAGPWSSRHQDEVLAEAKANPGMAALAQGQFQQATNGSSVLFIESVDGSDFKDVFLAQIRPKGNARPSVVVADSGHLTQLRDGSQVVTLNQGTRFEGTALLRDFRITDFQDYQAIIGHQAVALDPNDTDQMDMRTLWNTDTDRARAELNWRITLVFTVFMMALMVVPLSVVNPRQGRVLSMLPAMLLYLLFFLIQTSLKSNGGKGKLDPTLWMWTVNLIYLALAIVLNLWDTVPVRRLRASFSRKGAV

Legend:
Assay in all cases: co-purification (Ni-NTA affinity, then SEC); LptB (wild type or mutant), LptF and LptG co-expressed with LptC-His7 in E. coli BL21(λDE3); membranes solubilised in 1% DDM with 2 mM ATP; complex captured on Ni-NTA by LptC-His7, eluted with 200 mM imidazole, then Superdex 200 increase in 0.005% LMNG
[1] = biological target: LptG (E. coli) (UniProt P0ADC6)
[2] = biological target: LptC-His7 (E. coli) (UniProt P0ADV9)
[3] = biological target: LptF (E. coli) (UniProt P0AF98)

Measured: binding

B1: LptB^R144H (enzyme, UniProt P0A9V1 1-241)
chain: MATLTAKNLAKAYKGRRVVEDVSLTVNSGEIVGLLGPNGAGKTTTFYMVVGIVPRDAGNIIIDDDDISLLPLHARARRGIGYLPQEASIFRRLSVYDNLMAVLQIRDDLSAEQREDRANELMEEFHIEHLRDSMGQSLSGGERHRVEIARALAANPKFILLDEPFAGVDPISVIDIKRIIEHLRDSGLGVLITDHNVRETLAVCERAYIVSQGHLIAHGTPTEILQDEHVKRVYLGEDFRL
binds: all assays above

B2: His8-LptB^E163Q (enzyme, E. coli, UniProt P0A9V1 1-241, looked up)
chain: B1 chain with H144R, E163Q
notes: catalytically dead E163Q variant; the CTD is fully resolved up to L241, the last residue of LptB; A TEV protease cleavage site stands between the His8 tag and LptB; no TEV cleavage is described; also called His8TEV-LptB(E163Q); His-LptB(E163Q); source: E. coli KRX, pET28b(+)-His8TEV-LptB(E163Q), purified (Ni-NTA, gel filtration on Superdex 200); not shown: His8, N-terminal, kept
binds: all assays above

B3: LptB^F239A (enzyme, UniProt P0A9V1 1-241)
chain: B1 chain with H144R, F239A
binds: all assays above

B4: LptB^WT (enzyme, UniProt P0A9V1 1-241)
chain: B1 chain with H144R
binds: all assays above

B5: LptB^R144H/F239A (enzyme, UniProt P0A9V1 1-241)
chain: B1 chain with F239A
binds: all assays above

Changes are numbered by the printed parent chain. In names and notes the source's numbering stands. No constants are given. Whether binding was seen depends on the method and setting. In cells and extracts the contact can be indirect. Binding can be weak; no strength is given.
